Results reported in the supplement of paper PMC12823440, “Inhibitors supercharge kinase turnover through native proteolytic circuits” (Nature, 2025).
Counter-ions that a name gives are not always drawn. The list shows a part of the results. Hit calls seldom repeat between salt and free forms of one compound.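 Kinases were expressed as nanoluciferase fusions in K562 cells and luminescence was read every 4 h between 2 and 18 h as percent of control, DMSO set to 100% and a positive control to 0%. A time point counts as decreased when the signal drops significantly (2 sigma). The hit call is the authors' own, does not follow from the count of time points alone, and its rule is not shown.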

Protein sequences, listed by entry. Tags and fused reporters are not part of them. Lines headed by an entry give the natural chain unless they say otherwise; changes in a name come on top.
UniProt Q9UM73: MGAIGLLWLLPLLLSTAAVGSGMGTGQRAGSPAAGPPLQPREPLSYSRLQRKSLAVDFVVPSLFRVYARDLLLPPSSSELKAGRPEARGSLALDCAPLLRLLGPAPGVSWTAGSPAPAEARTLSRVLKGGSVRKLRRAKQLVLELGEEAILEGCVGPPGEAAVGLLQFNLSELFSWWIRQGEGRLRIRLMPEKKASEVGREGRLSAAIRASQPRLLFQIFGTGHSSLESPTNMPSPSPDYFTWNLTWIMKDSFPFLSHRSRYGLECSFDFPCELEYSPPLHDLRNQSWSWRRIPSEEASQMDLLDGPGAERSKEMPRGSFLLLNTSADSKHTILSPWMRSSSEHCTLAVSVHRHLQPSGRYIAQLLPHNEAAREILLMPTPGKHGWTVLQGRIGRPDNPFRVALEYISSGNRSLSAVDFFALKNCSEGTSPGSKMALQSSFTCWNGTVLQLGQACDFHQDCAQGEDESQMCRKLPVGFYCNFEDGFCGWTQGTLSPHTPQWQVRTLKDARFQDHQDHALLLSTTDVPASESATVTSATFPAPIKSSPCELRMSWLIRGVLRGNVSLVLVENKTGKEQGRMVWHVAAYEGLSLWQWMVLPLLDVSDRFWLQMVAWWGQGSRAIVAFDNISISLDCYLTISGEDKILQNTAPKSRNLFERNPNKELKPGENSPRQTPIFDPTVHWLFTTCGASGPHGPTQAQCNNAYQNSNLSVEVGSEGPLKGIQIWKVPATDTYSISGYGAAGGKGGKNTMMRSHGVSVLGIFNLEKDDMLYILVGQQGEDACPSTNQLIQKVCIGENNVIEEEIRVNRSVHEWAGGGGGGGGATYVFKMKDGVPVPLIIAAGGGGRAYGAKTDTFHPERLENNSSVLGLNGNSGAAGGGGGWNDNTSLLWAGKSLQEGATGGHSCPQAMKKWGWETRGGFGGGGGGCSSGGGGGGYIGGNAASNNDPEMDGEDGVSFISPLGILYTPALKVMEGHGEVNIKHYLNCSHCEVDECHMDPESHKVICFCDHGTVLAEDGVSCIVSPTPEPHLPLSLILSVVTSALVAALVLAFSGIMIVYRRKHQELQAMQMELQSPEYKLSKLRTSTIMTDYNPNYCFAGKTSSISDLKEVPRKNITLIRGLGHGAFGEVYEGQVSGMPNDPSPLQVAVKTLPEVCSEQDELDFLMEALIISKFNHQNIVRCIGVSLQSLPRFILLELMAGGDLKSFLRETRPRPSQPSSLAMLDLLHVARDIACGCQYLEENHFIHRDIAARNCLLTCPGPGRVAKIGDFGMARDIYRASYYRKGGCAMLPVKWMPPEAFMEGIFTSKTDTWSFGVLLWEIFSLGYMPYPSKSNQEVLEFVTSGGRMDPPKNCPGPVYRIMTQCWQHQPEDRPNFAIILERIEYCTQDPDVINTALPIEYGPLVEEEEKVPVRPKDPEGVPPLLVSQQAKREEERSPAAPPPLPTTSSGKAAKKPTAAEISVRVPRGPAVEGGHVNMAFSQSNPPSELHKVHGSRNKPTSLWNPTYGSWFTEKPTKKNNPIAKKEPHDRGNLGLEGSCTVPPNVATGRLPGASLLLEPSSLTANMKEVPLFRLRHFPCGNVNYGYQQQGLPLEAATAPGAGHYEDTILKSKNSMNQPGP
UniProt P10398: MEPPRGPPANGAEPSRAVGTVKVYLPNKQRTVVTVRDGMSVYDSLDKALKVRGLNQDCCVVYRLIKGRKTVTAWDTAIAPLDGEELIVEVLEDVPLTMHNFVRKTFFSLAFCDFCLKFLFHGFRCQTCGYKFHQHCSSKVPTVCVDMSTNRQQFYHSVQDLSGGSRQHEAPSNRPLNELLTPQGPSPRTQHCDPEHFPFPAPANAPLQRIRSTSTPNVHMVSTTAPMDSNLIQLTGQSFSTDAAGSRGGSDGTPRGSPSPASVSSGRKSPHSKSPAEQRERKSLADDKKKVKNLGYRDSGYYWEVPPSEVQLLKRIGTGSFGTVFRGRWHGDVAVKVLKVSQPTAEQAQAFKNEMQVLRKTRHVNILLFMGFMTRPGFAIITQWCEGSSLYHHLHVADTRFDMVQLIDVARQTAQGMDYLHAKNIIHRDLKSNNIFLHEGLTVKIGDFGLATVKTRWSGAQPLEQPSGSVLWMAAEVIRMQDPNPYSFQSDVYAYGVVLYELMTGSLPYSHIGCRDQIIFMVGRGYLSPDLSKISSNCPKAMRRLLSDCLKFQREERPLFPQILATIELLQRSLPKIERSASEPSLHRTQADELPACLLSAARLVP
UniProt O14965: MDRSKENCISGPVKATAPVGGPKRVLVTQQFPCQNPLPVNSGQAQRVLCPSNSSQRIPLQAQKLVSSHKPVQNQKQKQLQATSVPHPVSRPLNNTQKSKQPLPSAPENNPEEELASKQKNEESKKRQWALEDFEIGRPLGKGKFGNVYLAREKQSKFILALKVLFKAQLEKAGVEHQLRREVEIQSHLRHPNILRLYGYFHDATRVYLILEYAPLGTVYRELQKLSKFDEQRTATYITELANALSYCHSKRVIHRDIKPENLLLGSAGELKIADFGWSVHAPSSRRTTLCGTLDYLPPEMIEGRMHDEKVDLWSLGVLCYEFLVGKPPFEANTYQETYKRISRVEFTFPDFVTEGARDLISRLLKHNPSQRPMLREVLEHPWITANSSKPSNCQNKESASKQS
UniProt Q96GD4, whole entry: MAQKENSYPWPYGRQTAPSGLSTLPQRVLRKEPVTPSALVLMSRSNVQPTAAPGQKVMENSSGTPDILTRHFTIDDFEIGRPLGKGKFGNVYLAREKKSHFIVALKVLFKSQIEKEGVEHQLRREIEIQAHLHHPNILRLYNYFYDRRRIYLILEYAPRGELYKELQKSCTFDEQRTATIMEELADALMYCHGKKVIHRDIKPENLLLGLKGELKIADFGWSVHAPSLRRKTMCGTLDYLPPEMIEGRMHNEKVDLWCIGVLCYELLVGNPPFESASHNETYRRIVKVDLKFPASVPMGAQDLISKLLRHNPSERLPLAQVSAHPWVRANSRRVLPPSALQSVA
UniProt Q9UQB9: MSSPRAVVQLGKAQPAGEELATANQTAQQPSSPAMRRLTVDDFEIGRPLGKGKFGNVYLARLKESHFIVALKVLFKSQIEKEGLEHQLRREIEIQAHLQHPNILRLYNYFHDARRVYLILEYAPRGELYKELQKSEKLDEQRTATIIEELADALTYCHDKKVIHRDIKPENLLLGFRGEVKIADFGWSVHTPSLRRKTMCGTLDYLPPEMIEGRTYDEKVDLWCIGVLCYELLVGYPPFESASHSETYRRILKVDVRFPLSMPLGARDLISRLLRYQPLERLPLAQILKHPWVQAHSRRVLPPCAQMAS
UniProt P51451: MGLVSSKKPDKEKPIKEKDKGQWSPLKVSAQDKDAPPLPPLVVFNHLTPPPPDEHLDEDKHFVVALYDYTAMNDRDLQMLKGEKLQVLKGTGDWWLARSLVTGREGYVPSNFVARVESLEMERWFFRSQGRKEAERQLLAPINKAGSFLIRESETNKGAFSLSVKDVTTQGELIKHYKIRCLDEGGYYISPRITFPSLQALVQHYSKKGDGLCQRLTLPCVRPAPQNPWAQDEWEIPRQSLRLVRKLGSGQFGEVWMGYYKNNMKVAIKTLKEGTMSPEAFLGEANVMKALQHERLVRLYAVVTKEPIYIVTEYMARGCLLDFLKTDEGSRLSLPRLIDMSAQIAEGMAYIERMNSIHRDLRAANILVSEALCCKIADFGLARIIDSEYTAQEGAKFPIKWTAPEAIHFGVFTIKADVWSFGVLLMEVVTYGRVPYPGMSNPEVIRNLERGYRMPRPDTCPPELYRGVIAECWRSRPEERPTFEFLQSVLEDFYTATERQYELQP
UniProt P51813: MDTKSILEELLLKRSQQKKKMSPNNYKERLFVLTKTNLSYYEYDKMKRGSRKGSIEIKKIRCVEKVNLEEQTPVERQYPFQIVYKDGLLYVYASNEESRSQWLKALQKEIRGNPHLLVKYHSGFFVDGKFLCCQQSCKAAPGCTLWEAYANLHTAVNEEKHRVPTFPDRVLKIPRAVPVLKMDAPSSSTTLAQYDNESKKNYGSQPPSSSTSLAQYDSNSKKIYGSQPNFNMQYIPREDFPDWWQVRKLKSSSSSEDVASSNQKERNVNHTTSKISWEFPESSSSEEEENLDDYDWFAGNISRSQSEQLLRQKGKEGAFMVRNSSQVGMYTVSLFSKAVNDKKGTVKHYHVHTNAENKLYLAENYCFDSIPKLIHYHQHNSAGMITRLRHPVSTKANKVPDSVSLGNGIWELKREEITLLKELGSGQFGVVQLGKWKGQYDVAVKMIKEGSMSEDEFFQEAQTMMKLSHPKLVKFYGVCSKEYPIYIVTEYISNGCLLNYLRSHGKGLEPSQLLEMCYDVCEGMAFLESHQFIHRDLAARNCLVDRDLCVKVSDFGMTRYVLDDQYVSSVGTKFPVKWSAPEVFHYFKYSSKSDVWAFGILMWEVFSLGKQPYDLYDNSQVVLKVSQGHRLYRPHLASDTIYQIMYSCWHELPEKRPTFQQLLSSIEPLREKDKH
UniProt P15056, whole entry, looked up: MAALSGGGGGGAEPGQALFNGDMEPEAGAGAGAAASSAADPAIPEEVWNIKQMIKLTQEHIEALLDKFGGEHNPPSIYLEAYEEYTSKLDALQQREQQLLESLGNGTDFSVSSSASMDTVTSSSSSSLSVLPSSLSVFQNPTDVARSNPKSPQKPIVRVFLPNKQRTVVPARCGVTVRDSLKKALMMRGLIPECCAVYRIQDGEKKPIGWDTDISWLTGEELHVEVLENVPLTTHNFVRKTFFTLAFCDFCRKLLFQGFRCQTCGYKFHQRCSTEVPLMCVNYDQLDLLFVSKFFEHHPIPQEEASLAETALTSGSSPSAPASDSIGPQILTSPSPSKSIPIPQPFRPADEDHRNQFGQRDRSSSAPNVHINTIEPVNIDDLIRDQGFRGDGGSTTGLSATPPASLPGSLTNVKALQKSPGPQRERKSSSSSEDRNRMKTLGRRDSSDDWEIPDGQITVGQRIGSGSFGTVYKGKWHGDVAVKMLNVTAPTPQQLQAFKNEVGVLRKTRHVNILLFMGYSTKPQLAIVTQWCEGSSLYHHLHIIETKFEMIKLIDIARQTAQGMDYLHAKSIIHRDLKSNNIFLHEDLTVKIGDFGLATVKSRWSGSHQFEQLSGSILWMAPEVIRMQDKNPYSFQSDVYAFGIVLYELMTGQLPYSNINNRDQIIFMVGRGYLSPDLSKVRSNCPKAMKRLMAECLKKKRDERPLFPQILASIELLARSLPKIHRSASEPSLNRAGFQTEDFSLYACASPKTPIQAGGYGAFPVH
UniProt Q15131: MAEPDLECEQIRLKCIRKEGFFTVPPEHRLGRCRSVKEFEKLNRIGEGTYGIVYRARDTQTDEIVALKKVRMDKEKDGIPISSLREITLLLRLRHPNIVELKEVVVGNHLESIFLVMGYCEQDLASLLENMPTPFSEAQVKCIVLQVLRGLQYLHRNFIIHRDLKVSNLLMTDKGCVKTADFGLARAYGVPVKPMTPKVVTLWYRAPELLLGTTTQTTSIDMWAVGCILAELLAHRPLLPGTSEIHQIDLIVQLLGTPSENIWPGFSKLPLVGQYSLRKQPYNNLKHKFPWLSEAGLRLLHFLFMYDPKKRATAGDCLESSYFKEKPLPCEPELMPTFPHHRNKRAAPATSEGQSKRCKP
UniProt Q00526: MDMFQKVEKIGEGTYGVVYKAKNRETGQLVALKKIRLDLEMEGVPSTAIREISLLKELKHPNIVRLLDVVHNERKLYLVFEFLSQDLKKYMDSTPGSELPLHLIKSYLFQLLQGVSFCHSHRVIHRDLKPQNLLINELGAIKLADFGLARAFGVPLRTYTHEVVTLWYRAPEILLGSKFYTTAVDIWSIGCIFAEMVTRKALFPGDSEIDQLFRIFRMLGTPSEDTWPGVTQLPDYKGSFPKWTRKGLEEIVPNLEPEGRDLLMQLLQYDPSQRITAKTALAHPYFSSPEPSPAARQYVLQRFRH
UniProt Q00535, whole entry, looked up: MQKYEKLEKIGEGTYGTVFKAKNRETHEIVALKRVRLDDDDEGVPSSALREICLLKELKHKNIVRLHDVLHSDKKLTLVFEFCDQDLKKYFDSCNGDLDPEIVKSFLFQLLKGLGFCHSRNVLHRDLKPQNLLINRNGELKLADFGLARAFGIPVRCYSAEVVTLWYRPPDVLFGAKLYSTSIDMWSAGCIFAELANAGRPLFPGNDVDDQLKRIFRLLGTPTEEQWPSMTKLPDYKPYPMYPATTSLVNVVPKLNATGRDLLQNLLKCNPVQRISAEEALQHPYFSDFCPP
UniProt Q00534, whole entry: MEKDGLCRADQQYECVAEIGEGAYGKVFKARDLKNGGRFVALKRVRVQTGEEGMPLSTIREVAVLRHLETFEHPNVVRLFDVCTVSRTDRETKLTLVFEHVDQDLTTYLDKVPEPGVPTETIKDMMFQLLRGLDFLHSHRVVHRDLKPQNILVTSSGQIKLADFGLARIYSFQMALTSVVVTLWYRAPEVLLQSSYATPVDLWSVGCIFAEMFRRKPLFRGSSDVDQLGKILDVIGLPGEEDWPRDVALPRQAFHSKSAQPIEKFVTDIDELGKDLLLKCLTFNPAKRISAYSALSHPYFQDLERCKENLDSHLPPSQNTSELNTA

What was measured:
Test in all cases: number of time points (of 5) at which kinase-Nluc abundance scored as decreased, DMSO-normalised (count); higher = more persistent destabilization
Settings in all cases: K562; 2-18 h
ALK = ALK (UniProt Q9UM73)
ARAF = ARAF (UniProt P10398)
AURKA = AURKA (UniProt O14965)
AURKB = AURKB (UniProt Q96GD4)
AURKC = AURKC (UniProt Q9UQB9)
BLK = BLK (UniProt P51451)
BMX = BMX (UniProt P51813)
BRAF = BRAF (UniProt P15056)
BRAF_V600E = system: BRAF_V600E
BTK = BTK (UniProt Q06187)
CAMK2A = CAMK2A (UniProt Q9UQM7)
CAMK2G = CAMK2G (UniProt Q13555)
CDK10 = CDK10 (UniProt Q15131)
CDK2 = CDK2 (UniProt P24941)
CDK3 = CDK3 (UniProt Q00526)
CDK5 = CDK5 (UniProt Q00535)
CDK6 = CDK6 (UniProt Q00534)
CHEK2 = CHEK2 (UniProt O96017)
CSF1R = CSF1R (UniProt P07333)
CSK = CSK (UniProt P41240)

Structure (SMILES)	number of time points (ALK)	number of time points (ARAF)	number of time points (AURKA)	number of time points (AURKB)	number of time points (AURKC)	number of time points (BLK)	number of time points (BMX)	number of time points (BRAF)	number of time points (BRAF_V600E)	number of time points (BTK)	number of time points (CAMK2A)	number of time points (CAMK2G)	number of time points (CDK10)	number of time points (CDK2)	number of time points (CDK3)	number of time points (CDK5)	number of time points (CDK6)	number of time points (CHEK2)	number of time points (CSF1R)	number of time points (CSK)
Cc1c(-c2c(F)cc(C(N)=O)c3[nH]c4c(c23)CC[C@H](C(C)(C)O)C4)cccc1-n1c(=O)c2cccc(F)c2n(C)c1=O (2.5 µM)	0	0	0	0	0	0	0	0	0	0	0	0	0	0	0	0	0	0	0	0
COc1ccc(-c2ccc3c(N4CCOCC4)nc(N4C[C@@H](C)O[C@@H](C)C4)nc3n2)cc1CO (2.5 µM)	0	0	0	0	0	0	0	0	0	0	0	0	0	0	0	0	0	0	0	0
Cc1cc(=O)oc2c(C=O)c(O)ccc12 (10 µM)	0	0	0	0	0	0	0	0	0	0	0	0	0	0	0	0	0	0	0	0
C=CC(=O)Nc1cc(C)ccc1Nc1nc(Nc2cc(OC)ncc2C)ncc1C(F)(F)F (10 µM)	0	0	0	0	0	0	0	0	0	0	0	0	0	0	0	0	0	0	0	0
CCOC(=O)N1CCN(C(=O)[C@H](Cc2cccc(C(=N)N)c2)NS(=O)(=O)c2c(C(C)C)cc(C(C)C)cc2C(C)C)CC1 (10 µM)	0	0	0	0	0	0	0	0	0	0	0	0	0	0	0	0	0	0	0	0
O=C1Nc2ccc(C(=O)c3ccco3)cc2C1=Cc1cc(Cl)c(O)c(Cl)c1 (2.5 µM)	0	0	0	0	0	0	0	0	0	0	0	0	0	0	0	0	0	0	0	0
O=C(Nc1ccc(CN2CCOCC2)cc1)c1ccc(-c2cccc(Cl)c2)o1 (10 µM)	0	0	0	0	0	0	0	0	1	0	0	0	0	0	0	0	0	0	0	0
FC(F)(c1ccc2ncccc2c1)c1nnc2ccc(-c3ccncc3)nn12 (10 µM)	0	0	0	0	0	0	0	0	0	0	0	0	0	0	0	0	0	0	0	0
O=C1NC(=O)/C(=C/c2ccc3nccnc3c2)S1 (10 µM)	0	0	0	0	0	0	0	0	0	0	0	0	0	0	0	1	0	0	0	0
Cc1ccccc1-n1c([C@H](C)Nc2nc(N)nc3nc[nH]c23)nc2cccc(C)c2c1=O [CAL-130 (Hydrochloride)] (10 µM)	0	0	0	0	0	0	0	0	0	0	0	0	0	0	0	0	0	0	0	0
N#CCC1CCN(c2nc(Nc3ccc(N4CCC(O)CC4)cc3)c3c(=O)[nH]ncc3n2)CC1 [Gusacitinib] (10 µM)	0	0	0	0	0	0	2	0	0	0	0	0	0	0	0	0	0	0	0	0
Cc1nc(-c2cn3c(n2)-c2ccc(-c4cnn(C(C)(C)C(N)=O)c4)cc2OCC3)n(C(C)C)n1 [Taselisib] (10 µM)	0	0	0	0	0	1	0	0	0	0	0	0	0	0	0	0	0	0	0	0
O=C1NC(=O)/C(=C\c2cccc(C(F)(F)F)c2)S1 (2.5 µM)	0	0	0	0	0	0	0	0	0	0	0	0	0	0	0	0	0	0	0	0
O=C(CSC1=NCCN1)NC1CCCCCC1 [ICCB-19 (hydrochloride)] (2.5 µM)	0	0	0	0	0	0	0	0	0	0	0	0	0	0	0	0	0	0	0	0
Nc1ncnc2c1c(-c1ccc(Oc3ccccc3)cc1)nn2C1CCCC1 (2.5 µM)	0	0	0	0	0	0	0	0	0	0	0	0	0	0	0	0	0	0	0	0
O=Nc1c(-c2c(O)[nH]c3ccc(I)cc23)[nH]c2ccccc12 [5-Iodo-indirubin-3'-monoxime] (10 µM)	0	0	0	0	0	0	0	4	0	0	0	0	0	0	0	0	0	0	0	0
C=CC(=O)Nc1cc(Nc2ncc(Cl)c(-c3c[nH]c4ccccc34)n2)c(OC)cc1N(C)CCN(C)C [Mutant EGFR inhibitor] (2.5 µM)	0	0	2	0	0	4	0	0	2	0	0	0	0	0	0	0	0	1	0	0
COc1cc2c(cc1OC)CN(S(=O)(=O)c1ccc(OC)c(N3CCN(C(=O)c4ccc(F)cc4C(F)(F)F)CC3)c1)CC2 (10 µM)	0	0	0	0	0	0	0	0	0	0	0	0	0	0	0	0	0	0	0	0
Cc1ccc(OCCSc2ncccn2)c(Br)c1 [ZLN024 (hydrochloride)] (10 µM)	0	0	0	0	0	0	0	0	0	0	0	0	0	0	0	0	0	0	0	0
c1ccc(-c2[nH]ncc2-c2ccnc3ccccc23)nc1 (10 µM)	0	0	0	0	0	0	0	0	0	0	0	0	0	0	0	0	0	0	0	0
Nc1ncnc2c1c(-c1cccc(OCc3ccccc3)c1)cn2C1CC(CN2CCC2)C1 (stereo not given) (2.5 µM)	0	0	0	0	0	0	0	0	0	0	0	0	0	0	0	0	0	0	0	0
C[C@@H]1COCCN1c1cc(C2([S@@](C)(=N)=O)CC2)nc(-c2ccnc3[nH]ccc23)n1 [(S)-Ceralasertib] (10 µM)	0	0	0	0	0	0	0	0	0	0	0	0	0	0	0	0	0	0	0	0
Cc1ccc(CNc2ncnc3ccc(-c4ccc(CO)o4)cc23)o1 (10 µM)	0	0	0	0	0	0	0	0	0	0	0	0	0	0	0	0	0	0	0	0
C=C1C(=O)O[C@H]2C[C@H](C)C(/C=C/C(C)=O)=CC[C@H]12 [Xanthatin] (2.5 µM)	0	0	0	0	0	0	0	0	0	0	0	0	0	0	0	0	0	0	0	0
O=C1N[C@@H](Cc2c[nH]c3ccccc23)C(=O)N2CCC[C@@H]12 [Brevianamide F] (10 µM)	0	0	0	0	0	0	0	0	0	0	0	0	0	0	0	0	0	0	0	0

A draw from above in order of length of the SMILES, ascending:
Structure (SMILES)	number of time points (ALK)	number of time points (ARAF)	number of time points (AURKA)	number of time points (AURKB)	number of time points (AURKC)	number of time points (BLK)	number of time points (BMX)	number of time points (BRAF)	number of time points (BRAF_V600E)	number of time points (BTK)	number of time points (CAMK2A)	number of time points (CAMK2G)	number of time points (CDK10)	number of time points (CDK2)	number of time points (CDK3)	number of time points (CDK5)	number of time points (CDK6)	number of time points (CHEK2)	number of time points (CSF1R)	number of time points (CSK)
Cc1cc(=O)oc2c(C=O)c(O)ccc12 (10 µM)	0	0	0	0	0	0	0	0	0	0	0	0	0	0	0	0	0	0	0	0
O=C(Nc1ccc(CN2CCOCC2)cc1)c1ccc(-c2cccc(Cl)c2)o1 (10 µM)	0	0	0	0	0	0	0	0	1	0	0	0	0	0	0	0	0	0	0	0
Cc1c(-c2c(F)cc(C(N)=O)c3[nH]c4c(c23)CC[C@H](C(C)(C)O)C4)cccc1-n1c(=O)c2cccc(F)c2n(C)c1=O (2.5 µM)	0	0	0	0	0	0	0	0	0	0	0	0	0	0	0	0	0	0	0	0
